This data set in a line: Degradation of the compound in buffered solution. The note with it: first 30 minutes at room temperature.

For `O=C(O)C(=O)CC1(C(=O)O)C=CC(O)C=C1` (stereo not shown) [Prephenate, prephenate], the rate of degradation was 15-18%.

These data come from patent US8492614B2, “Plant biochemical systems and uses thereof” (The Board of Trustees of the University of Illinois, priority 2007, dated 2013).
